Experimental data as given in paper PMC8758478.
No constants are given. Whether binding was seen depends on the method and setting. In cells and extracts the contact can be indirect. Some binding calls cover weakened binding; strength is not graded here.

Amino acid sequences for entries named in this document (tags omitted). Residues count along the entry.
UniProt P12023, residues 18-770: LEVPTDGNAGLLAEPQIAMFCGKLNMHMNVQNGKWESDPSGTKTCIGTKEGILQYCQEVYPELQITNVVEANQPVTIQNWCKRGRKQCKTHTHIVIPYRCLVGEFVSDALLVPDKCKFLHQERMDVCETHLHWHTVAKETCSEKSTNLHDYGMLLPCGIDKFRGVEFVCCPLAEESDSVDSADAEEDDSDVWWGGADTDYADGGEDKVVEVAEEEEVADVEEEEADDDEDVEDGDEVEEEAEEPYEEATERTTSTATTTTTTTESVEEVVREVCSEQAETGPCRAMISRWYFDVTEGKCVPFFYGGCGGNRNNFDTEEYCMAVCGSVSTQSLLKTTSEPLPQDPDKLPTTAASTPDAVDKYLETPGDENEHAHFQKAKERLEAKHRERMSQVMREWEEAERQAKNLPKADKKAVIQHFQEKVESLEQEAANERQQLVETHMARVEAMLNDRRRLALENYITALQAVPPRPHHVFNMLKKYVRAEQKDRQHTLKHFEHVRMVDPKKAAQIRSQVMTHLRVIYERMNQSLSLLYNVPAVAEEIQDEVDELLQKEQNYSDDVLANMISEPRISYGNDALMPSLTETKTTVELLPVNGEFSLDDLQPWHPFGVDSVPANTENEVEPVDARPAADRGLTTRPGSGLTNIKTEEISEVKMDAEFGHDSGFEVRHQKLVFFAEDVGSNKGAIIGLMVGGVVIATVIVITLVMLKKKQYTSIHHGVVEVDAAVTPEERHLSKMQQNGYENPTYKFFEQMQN

Target: T1, Lf (lactoferrin) of mouse brain (mouse (endogenous in mouse brain)) (UniProt P08071)
T1 sequence: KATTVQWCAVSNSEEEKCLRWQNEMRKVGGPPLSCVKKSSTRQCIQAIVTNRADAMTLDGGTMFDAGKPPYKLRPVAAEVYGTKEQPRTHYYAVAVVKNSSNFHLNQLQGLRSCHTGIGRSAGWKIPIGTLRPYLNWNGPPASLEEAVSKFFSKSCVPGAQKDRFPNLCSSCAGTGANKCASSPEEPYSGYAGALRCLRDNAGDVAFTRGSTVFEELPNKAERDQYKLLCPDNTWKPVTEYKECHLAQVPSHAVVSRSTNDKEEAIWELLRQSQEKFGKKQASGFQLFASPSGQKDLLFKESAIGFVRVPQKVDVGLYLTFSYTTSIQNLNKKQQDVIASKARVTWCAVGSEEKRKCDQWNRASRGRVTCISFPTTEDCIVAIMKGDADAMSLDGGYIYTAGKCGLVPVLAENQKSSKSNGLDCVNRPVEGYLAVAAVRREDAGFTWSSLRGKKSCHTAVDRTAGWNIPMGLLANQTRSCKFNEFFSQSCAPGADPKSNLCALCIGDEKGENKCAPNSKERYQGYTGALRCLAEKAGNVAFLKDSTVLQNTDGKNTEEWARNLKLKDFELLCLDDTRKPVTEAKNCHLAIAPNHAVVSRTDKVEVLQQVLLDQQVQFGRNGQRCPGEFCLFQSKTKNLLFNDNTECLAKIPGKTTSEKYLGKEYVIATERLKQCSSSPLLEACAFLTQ
Assay: co-IP; brain homogenate supernatant (100 μg, PBS with 1% Triton X-100) of wild-type and APP-/- mice on a normal or high-iron diet (8 days); anti-Lf (1:200) with protein G agarose, blot with anti-APP 22C11

binding: binds
Substance: APP (amyloid precursor protein) of mouse brain (from UniProt P12023 18-770)
